We go through 21 sequences from the supplement of paper PMC9233669.

This sample is rich in variants without activity.

The test system of one data set is biotinyl-Leu-oxazolone. Briefly: self-aminoacylation, catalytic enhancement (BLO) (fold over background); higher = more active; k-Seq, kA / k0A0; sequences stand for … in GGGAAUGGAUCCACAUCUACGAAUUC…UUCACUGCAGACUUGACGAAGCUG
The method, boiled down:
(§1)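 Catalytic enhancement equals the median kA over the uncatalyzed rate, the latter read from the low-activity peak of a bimodal Gaussian fit. Values of kA came from fitting each sequence's fraction reacted to a pseudo-first-order model, with 1000 bootstraps. Reacted RNA was captured with streptavidin and quantified by triplicate qPCR and Illumina sequencing after 90 minutes at room temperature with 2–1250 μM biotinyl-aminoacyl-oxazolone and 0.43 μM mutagenized RNA pools bearing a 21-nt variable region.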

The next data set deals with biotinyl-Ile-oxazolone. Description: self-aminoacylation, catalytic enhancement (BIO) (fold over background); higher = more active; k-Seq, kA / k0A0; sequences stand for … in GGGAAUGGAUCCACAUCUACGAAUUC…UUCACUGCAGACUUGACGAAGCUG
An outline of the steps: as §1

A further data set has as its system biotinyl-Met-oxazolone. Description: self-aminoacylation, catalytic enhancement (BMO) (fold over background); higher = more active; k-Seq, kA / k0A0; sequences stand for … in GGGAAUGGAUCCACAUCUACGAAUUC…UUCACUGCAGACUUGACGAAGCUG
The method, boiled down:
as §1

A further data set deals with biotinyl-Trp-oxazolone. Description: self-aminoacylation, catalytic enhancement (BWO) (fold over background); higher = more active; k-Seq, kA / k0A0; sequences stand for … in GGGAAUGGAUCCACAUCUACGAAUUC…UUCACUGCAGACUUGACGAAGCUG
The method, boiled down: as §1

In a further data set the test system is biotinyl-Phe-oxazolone. Description: self-aminoacylation, catalytic enhancement (BFO) (fold over background); higher = more active; k-Seq, kA / k0A0; sequences stand for … in GGGAAUGGAUCCACAUCUACGAAUUC…UUCACUGCAGACUUGACGAAGCUG
An outline of the steps:
as §1

For a further data set, the system named is biotinyl-Val-oxazolone. Briefly: self-aminoacylation, catalytic enhancement (BVO) (fold over background); higher = more active; k-Seq, kA / k0A0; sequences stand for … in GGGAAUGGAUCCACAUCUACGAAUUC…UUCACUGCAGACUUGACGAAGCUG
The method, boiled down:
as §1

For “AUUACCCUAGUCAUCGAUUGA [Fam2.1 aminoacylation ribozyme variant]”, the self-aminoacylation in the data set with biotinyl-Leu-oxazolone is 0.59; with biotinyl-Ile-oxazolone, 0.749; with biotinyl-Met-oxazolone, 0.741; in the data set on biotinyl-Trp-oxazolone, 0.993; in the data set on biotinyl-Phe-oxazolone, 0.688; with biotinyl-Val-oxazolone it was 0.808.
Turning to “CCGCACUUCAAGCAAUCGGAC [Fam1B.1 aminoacylation ribozyme variant]”, the self-aminoacylation with biotinyl-Leu-oxazolone was found to be 0.812; in the data set with biotinyl-Ile-oxazolone, 1.07; in the data set with biotinyl-Met-oxazolone, 1; in the data set with biotinyl-Trp-oxazolone it was 1.86; in the data set on biotinyl-Phe-oxazolone it was 1.31; in the data set on biotinyl-Val-oxazolone, 1.12.
For the sequence “CCACACUUCAAGCGAUUGGUC [Fam1B.1 aminoacylation ribozyme variant]”, the self-aminoacylation with biotinyl-Leu-oxazolone stood at 0.621; with biotinyl-Ile-oxazolone it was 0.87; in the data set with biotinyl-Met-oxazolone, 0.665; with biotinyl-Trp-oxazolone it was 0.582; in the data set on biotinyl-Phe-oxazolone it was 0.55; in the data set with biotinyl-Val-oxazolone, 0.763.
Turning to “CGACACUUCAAGCGAUCGGUC [Fam1B.1 aminoacylation ribozyme variant]”, the self-aminoacylation in the data set on biotinyl-Leu-oxazolone was determined as 1.42; in the data set on biotinyl-Ile-oxazolone, 1.59; with biotinyl-Met-oxazolone it was 1.29; in the data set with biotinyl-Trp-oxazolone, 1.79; with biotinyl-Phe-oxazolone, 0.915; in the data set with biotinyl-Val-oxazolone it was 1.46.
In the case of “CCACACUUGAAGUAAUCGGUC [Fam1B.1 aminoacylation ribozyme variant]”, the self-aminoacylation in the data set with biotinyl-Leu-oxazolone came out at 0.703; in the data set on biotinyl-Ile-oxazolone, 0.9; in the data set with biotinyl-Met-oxazolone, 0.76; with biotinyl-Trp-oxazolone, 1.18; in the data set on biotinyl-Phe-oxazolone, 0.653; in the data set with biotinyl-Val-oxazolone it was 0.74.
As for “CUACUUCAAACAGUCGGGCUG [Fam1A.1 aminoacylation ribozyme variant]”, the self-aminoacylation in the data set with biotinyl-Leu-oxazolone worked out at 1.56; in the data set with biotinyl-Ile-oxazolone, 1.65; in the data set on biotinyl-Met-oxazolone, 1.23; in the data set with biotinyl-Trp-oxazolone, 1.61; in the data set on biotinyl-Phe-oxazolone, 0.993; with biotinyl-Val-oxazolone, 1.49.
On to “CUACUUGAAACAGUCGGUCUG [Fam1A.1 aminoacylation ribozyme variant]”, for which the self-aminoacylation stood at 1.26 with biotinyl-Leu-oxazolone; 1.09 in the data set on biotinyl-Ile-oxazolone; 1.14 with biotinyl-Met-oxazolone; 1.08 in the data set on biotinyl-Trp-oxazolone; 0.659 in the data set with biotinyl-Phe-oxazolone; 1.2 with biotinyl-Val-oxazolone.
For the sequence “CUACUUCACACAAUCGGUCUC [Fam1A.1 aminoacylation ribozyme variant]”, the self-aminoacylation with biotinyl-Leu-oxazolone is 0.611; in the data set on biotinyl-Ile-oxazolone, 0.739; with biotinyl-Met-oxazolone, 0.555; with biotinyl-Trp-oxazolone it was 0.725; with biotinyl-Phe-oxazolone it was 0.787; with biotinyl-Val-oxazolone, 0.675.
Take “CCACACUUCAAGCAAUGUGUC [Fam1B.1 aminoacylation ribozyme variant]”: the self-aminoacylation in the data set on biotinyl-Leu-oxazolone stood at 0.586; in the data set on biotinyl-Ile-oxazolone, 0.672; with biotinyl-Met-oxazolone it was 0.541; in the data set on biotinyl-Trp-oxazolone it was 0.538; in the data set with biotinyl-Phe-oxazolone it was 1.22; in the data set with biotinyl-Val-oxazolone, 0.738.
As to “AUUCACCUAGGUCAUAGGCUG [Fam2.2 aminoacylation ribozyme variant]”, the self-aminoacylation in the data set with biotinyl-Leu-oxazolone came out at 0.742; in the data set on biotinyl-Ile-oxazolone, 0.714; in the data set with biotinyl-Met-oxazolone, 0.591; in the data set with biotinyl-Trp-oxazolone, 0.512; with biotinyl-Phe-oxazolone, 0.512; with biotinyl-Val-oxazolone, 0.81.
On to “AUUCACCUAGGUAAUCGGGAG [Fam2.2 aminoacylation ribozyme variant]”, for which the self-aminoacylation turned out to be 0.784 in the data set on biotinyl-Leu-oxazolone; 0.764 with biotinyl-Ile-oxazolone; 0.939 in the data set with biotinyl-Met-oxazolone; 0.908 with biotinyl-Trp-oxazolone; 0.524 in the data set on biotinyl-Phe-oxazolone; 0.876 with biotinyl-Val-oxazolone.
Take “AAGUUUGUUAAGAGUCGCAAG [Fam3.1 aminoacylation ribozyme variant]”: the self-aminoacylation with biotinyl-Leu-oxazolone came to 0.825; in the data set on biotinyl-Ile-oxazolone, 1.07; in the data set on biotinyl-Met-oxazolone, 1.03; in the data set on biotinyl-Trp-oxazolone, 1.12; with biotinyl-Phe-oxazolone, 1.27; in the data set with biotinyl-Val-oxazolone it was 0.974.
Take “AUUUCCCUUGUCAUCGAGUGA [Fam2.1 aminoacylation ribozyme variant]”: the self-aminoacylation was found to be 7.73 in the data set on biotinyl-Leu-oxazolone; 3.62 in the data set with biotinyl-Ile-oxazolone; 7.14 with biotinyl-Met-oxazolone; 8.99 in the data set with biotinyl-Trp-oxazolone; 46 with biotinyl-Phe-oxazolone; 4.17 with biotinyl-Val-oxazolone.
On to “CUACUUCAAACACUCGUUCUG [Fam1A.1 aminoacylation ribozyme variant]”, for which the self-aminoacylation in the data set with biotinyl-Leu-oxazolone worked out at 0.492; in the data set with biotinyl-Ile-oxazolone, 0.595; with biotinyl-Met-oxazolone it was 0.499; in the data set on biotinyl-Trp-oxazolone, 0.444; in the data set with biotinyl-Phe-oxazolone, 0.429; in the data set on biotinyl-Val-oxazolone, 0.635.
Take “CCACAUUUCAAGCAAACGGUC [Fam1B.1 aminoacylation ribozyme variant]”: the self-aminoacylation is 0.914 with biotinyl-Leu-oxazolone; 1.17 in the data set on biotinyl-Ile-oxazolone; 0.901 in the data set on biotinyl-Met-oxazolone; 0.904 in the data set with biotinyl-Trp-oxazolone; 1.32 with biotinyl-Phe-oxazolone; 1.07 with biotinyl-Val-oxazolone.
In the case of “CUACUUAAAACAACCGGUCUG [Fam1A.1 aminoacylation ribozyme variant]”, the self-aminoacylation in the data set on biotinyl-Leu-oxazolone worked out at 0.929; with biotinyl-Ile-oxazolone, 1; in the data set on biotinyl-Met-oxazolone it was 1.19; in the data set on biotinyl-Trp-oxazolone it was 0.742; in the data set on biotinyl-Phe-oxazolone, 0.544; with biotinyl-Val-oxazolone, 0.91.
Consider “CCAUACUUCAAGCAAUCGAUC [Fam1B.1 aminoacylation ribozyme variant]”, for which the self-aminoacylation with biotinyl-Leu-oxazolone turned out to be 0.489; in the data set with biotinyl-Ile-oxazolone, 0.666; with biotinyl-Met-oxazolone it was 0.45; in the data set on biotinyl-Trp-oxazolone, 0.638; in the data set on biotinyl-Phe-oxazolone, 1.01; in the data set on biotinyl-Val-oxazolone, 0.842.
“AUUCACCUCCGUCAUCGGGUG [Fam2.2 aminoacylation ribozyme variant]”: the self-aminoacylation worked out at 10.8 in the data set on biotinyl-Leu-oxazolone; 5.62 with biotinyl-Ile-oxazolone; 8.59 in the data set on biotinyl-Met-oxazolone; 8.32 in the data set on biotinyl-Trp-oxazolone; 70.3 in the data set on biotinyl-Phe-oxazolone; 4.91 in the data set with biotinyl-Val-oxazolone.
Take “UUACUUCAAUCAAUCGGUCUG [Fam1A.1 aminoacylation ribozyme variant]”: the self-aminoacylation with biotinyl-Leu-oxazolone stood at 1.75; in the data set on biotinyl-Ile-oxazolone, 1.46; in the data set with biotinyl-Met-oxazolone, 1.5; in the data set with biotinyl-Trp-oxazolone, 15; with biotinyl-Phe-oxazolone it was 19.7; with biotinyl-Val-oxazolone, 1.34.
Take “AUUACCCUGGCCAUCGUGUGA [Fam2.1 aminoacylation ribozyme variant]”: the self-aminoacylation in the data set with biotinyl-Leu-oxazolone amounted to 1.63; in the data set on biotinyl-Ile-oxazolone it was 1.25; with biotinyl-Met-oxazolone it was 1.76; in the data set with biotinyl-Trp-oxazolone, 1.8; in the data set on biotinyl-Phe-oxazolone it was 6.7; with biotinyl-Val-oxazolone it was 1.01.
On to “CUAUUUCAAACAAUCGAUCUG [Fam1A.1 aminoacylation ribozyme variant]”, for which the self-aminoacylation with biotinyl-Leu-oxazolone is 0.469; in the data set with biotinyl-Ile-oxazolone, 0.662; in the data set with biotinyl-Met-oxazolone, 0.57; in the data set with biotinyl-Trp-oxazolone it was 0.483; in the data set on biotinyl-Phe-oxazolone, 0.873; in the data set on biotinyl-Val-oxazolone it was 0.573.
